Test results taken from the supplement of paper PMC4604168 (melanoma cell lines).
The list shows a part of the results. Many values rest on one well or one pass, so single values are uncertain.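 Imaging used 1,536-well plates; nuclei positive for cleaved PARP by antibody were divided by total DNA-stained nuclei to yield the apoptosis fraction. Doses for screening kept most cells viable, and cell lines differ markedly in resting and induced cleaved-PARP levels.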

What was measured:
Experiment in all cases: cleaved PARP positive nuclei fraction relative to DMSO control; melanoma cells; higher = more apoptosis
Conditions in all cases: library dose: low library concentration; 72 h
MZ2-MEL = system: MZ2-MEL
MeWo = system: MeWo
RPMI7951 = system: RPMI7951
RVH-421 = system: RVH-421
SkMel28 = system: SkMel28
SkMel2 = system: SkMel2
SkMel30 = system: SkMel30
SkMel5 = system: SkMel5
UACC257 = system: UACC257
UACC62 = system: UACC62
WM115 = system: WM115
WM1716 = system: WM1716
WM1745 = system: WM1745
WM3526 = system: WM3526
WM3619 = system: WM3619
WM451Lu = system: WM451Lu

Structure (SMILES)	cleaved PARP positive nuclei fraction (MZ2-MEL)	cleaved PARP positive nuclei fraction (MeWo)	cleaved PARP positive nuclei fraction (RPMI7951)	cleaved PARP positive nuclei fraction (RVH-421)	cleaved PARP positive nuclei fraction (SkMel28)	cleaved PARP positive nuclei fraction (SkMel2)	cleaved PARP positive nuclei fraction (SkMel30)	cleaved PARP positive nuclei fraction (SkMel5)	cleaved PARP positive nuclei fraction (UACC257)	cleaved PARP positive nuclei fraction (UACC62)	cleaved PARP positive nuclei fraction (WM115)	cleaved PARP positive nuclei fraction (WM1716)	cleaved PARP positive nuclei fraction (WM1745)	cleaved PARP positive nuclei fraction (WM3526)	cleaved PARP positive nuclei fraction (WM3619)	cleaved PARP positive nuclei fraction (WM451Lu)
C=C(c1ccc(C(=O)O)cc1)c1cc2c(cc1C)C(C)(C)CCC2(C)C [Bexarotene] + Cc1cc(N2CCOCC2)cc2[nH]c(-c3c(NC[C@@H](O)c4cccc(Cl)c4)cc[nH]c3=O)nc12 [BMS536924] (first compound 2 µM, partner dose 0.2 µM)	178%	57%	163%	145%	219%	52.9%	67.2%	40.8%	81%	75.9%	119%	70.8%	793%	67.3%	95.8%	62%
O=C(O)[C@@H]1[O][Sb](=[O])([O][Sb]2(=[O])[O][C@H]([C@H](O)CO)[C@H](O)[C@H](C(=O)O)[O]2)[O][C@H]([C@H](O)CO)[C@@H]1O (stereo partly drawn) [stibogluconate] + CC(C)(C)c1cnc(CSc2cnc(NC(=O)C3CCNCC3)s2)o1 [SNS-032] (first compound 2 µM, partner dose 0.01 µM)	81.8%	20%	99.3%	302%	66.8%	63.9%	60.9%	57.5%	74.4%	48.4%	154%	117%	92.5%	81.5%	90.1%	58.5%
CCCS(=O)(=O)Nc1ccc(F)c(C(=O)c2c[nH]c3ncc(Cl)cc23)c1F + O=C(Nc1ccccc1)c1cc([N+](=O)[O-])ccc1Cl [GW9662] (first compound 0.08 µM, partner dose 2 µM)	194%	93.7%	132%	41.1%	155%	37.4%	400%	72.4%	127%	401%	109%	100%	101%	185%	92%	94.7%
CC(C)C[C@H](NC(=O)[C@H](Cc1ccccc1)NC(=O)c1cnccn1)B(O)O [Bortezomib] + Cc1cc([N+](=O)[O-])ccc1NS(=O)(=O)c1cc(Cl)ccc1Cl [FH535] (first compound 0.001 µM, partner dose 1 µM)	166%	48%	364%	171%	171%	186%	102%	110%	53.9%	232%	95.6%	359%	140%	92.6%	580%	61.5%
CN1CCN(c2ccc3nc(-c4c(N)c5c(F)cccc5[nH]c4=O)[nH]c3c2)CC1 [Dovitinib] + O=C(O)C(=O)Nc1sc2c(c1C(=O)O)CCNC2 [TCS401] (first compound 0.1 µM, partner dose 1.66667 µM)	288%	92.3%	114%	143%	85%	61.3%	52.5%	75.4%	102%	98.7%	80.3%	147%	102%	68.8%	95.3%	68.4%
C=C(c1ccc(C(=O)O)cc1)c1cc2c(cc1C)C(C)(C)CCC2(C)C [Bexarotene] + O=S(=O)(c1ccccc1)N(CC(F)(F)F)c1ccc(C(O)(C(F)(F)F)C(F)(F)F)cc1 [T0901317] (first compound 2 µM, partner dose 1.4 µM)	91.6%	56.9%	114%	76.5%	274%	312%	33.1%	77.9%	39.3%	60.8%	52.7%	194%	128%	175%	97.7%	43%
Cc1cc(Nc2cc(N3CCN(C)CC3)nc(/C=C/c3ccccc3)n2)n[nH]1 + CCN(CC)CCCCNc1ncc2cc(-c3cc(OC)cc(OC)c3)c(NC(=O)NC(C)(C)C)nc2n1 [PD173074] (first compound 0.04 µM, partner dose 0.1 µM)	50.8%	70.7%	77.2%	93.4%	70.6%	71.3%	39.7%	152%	27.7%	60.5%	85.5%	61.8%	91.4%	32%	84.4%	72.5%
O=C(O)c1ccc2c(c1)nc(Nc1cccc(Cl)c1)c1ccncc12 + COc1cc(N2CCC(N3CCN(C)CC3)CC2)ccc1Nc1ncc(Cl)c(Nc2ccccc2S(=O)(=O)C(C)C)n1 [NVP-TAE684] (first compound 0.4 µM, partner dose 0.08 µM)	138%	172%	90.2%	39.7%	146%	157%	89%	131%	376%	117%	38%	280%	95.9%	53%	99.7%	27.3%
Nc1nc(F)nc2c1ncn2[C@@H]1O[C@H](CO)[C@@H](O)[C@@H]1O [fludarabine] + COc1cc(Nc2ncc(F)c(Nc3ccc4c(n3)NC(=O)C(C)(C)O4)n2)cc(OC)c1OC [Tamatinib] (first compound 0.2 µM, partner dose 0.4 µM)	70.5%	370%	201%	25.6%	90.3%	271%	205%	160%	181%	60.5%	117%	92.5%	129%	130%	101%	31.7%
CCCS(=O)(=O)Nc1ccc(F)c(C(=O)c2c[nH]c3ncc(Cl)cc23)c1F + CC(C)CCN1c2nc(Nc3cc(F)c(O)c(F)c3)ncc2N(C)C(=O)C1C [BID1870] (first compound 0.08 µM, partner dose 0.2 µM)	108%	50.6%	85.2%	34%	103%	139%	30%	63.7%	118%	204%	136%	34.2%	87.1%	287%	86.3%	28.4%
Cn1c(=O)n(-c2ccc(C(C)(C)C#N)cc2)c2c3cc(-c4cnc5ccccc5c4)ccc3ncc21 + COc1cc(N2CCC(N3CCN(C)CC3)CC2)ccc1Nc1ncc(Cl)c(Nc2ccccc2S(=O)(=O)C(C)C)n1 [NVP-TAE684] (first compound 0.004 µM, partner dose 0.08 µM)	103%	210%	186%	199%	162%	106%	70.7%	74.3%	38.4%	283%	171%	125%	99.2%	149%	90.3%	40%
C[C@@H](Oc1cc(-c2cnn(C3CCNCC3)c2)cnc1N)c1c(Cl)ccc(F)c1Cl [Crizotinib] + O=C(O)c1ccc(-c2c[nH]c3ncc(-c4ccccc4)cc23)cc1C1CCCC1 [GSK650394] (first compound 0.2 µM, partner dose 0.16 µM)	82.6%	58.8%	88.5%	84.4%	42.8%	89.4%	133%	98.1%	44%	68.9%	42.6%	61%	95.4%	186%	87.1%	68.8%
Cc1cc(Nc2cc(N3CCN(C)CC3)nc(/C=C/c3ccccc3)n2)n[nH]1 + COc1cc(N2CCC(N3CCN(C)CC3)CC2)ccc1Nc1ncc(Cl)c(Nc2ccccc2S(=O)(=O)C(C)C)n1 [NVP-TAE684] (first compound 0.04 µM, partner dose 0.08 µM)	28.3%	73.5%	146%	89.6%	87.8%	163%	87.8%	188%	327%	28.8%	85.3%	264%	111%	108%	97.8%	160%
O=C(O)c1ccc2c(c1)nc(Nc1cccc(Cl)c1)c1ccncc12 + O=c1cc(-c2cccc3c2Sc2ccccc2S3)oc(N2CCOCC2)c1 [KU55933] (first compound 0.4 µM, partner dose 1 µM)	115%	250%	76.9%	119%	47.9%	66.8%	132%	84.7%	44.9%	64.5%	186%	391%	182%	262%	204%	35.4%
C=C(c1ccc(C(=O)O)cc1)c1cc2c(cc1C)C(C)(C)CCC2(C)C [Bexarotene] + Oc1cc(-c2nc(-c3ccccc3)[nH]c2-c2ccncc2)ccc1Cl [L779450] (first compound 2 µM, partner dose 0.2 µM)	90.9%	72.7%	132%	236%	83%	102%	78.4%	63.9%	16.8%	73.1%	56.5%	69.6%	83.3%	90.2%	95.7%	46.5%
CN1CCN(c2ccc3nc(-c4c(N)c5c(F)cccc5[nH]c4=O)[nH]c3c2)CC1 [Dovitinib] + COc1ccc2c(c1)CCC1C2CCC2(C)C(NCCCCCCN3C(=O)C=CC3=O)CCC12 [U73122] (first compound 0.1 µM, partner dose 0.4 µM)	233%	53.6%	67.6%	155%	60.1%	68.8%	31.9%	81.5%	204%	127%	209%	316%	84.1%	64.7%	83.7%	87.9%
Cc1cc(Nc2cc(N3CCN(C)CC3)nc(/C=C/c3ccccc3)n2)n[nH]1 + N#Cc1c(O)c2c(-c3ccc(-c4ccccc4O)cc3)csc2[nH]c1=O [A769662] (first compound 0.04 µM, partner dose 2 µM)	136%	83.2%	62.6%	71.5%	184%	125%	75.8%	253%	113%	90.9%	57.1%	75.6%	98.2%	84.2%	79.4%	142%
Nc1ccn([C@@H]2O[C@H](CO)[C@@H](O)C2(F)F)c(=O)n1 [gemcitabine] + O=C(O)C(=O)Nc1sc2c(c1C(=O)O)CCNC2 [TCS401] (first compound 0.0004 µM, partner dose 1.66667 µM)	102%	141%	71.7%	446%	84.1%	94.7%	89.2%	152%	190%	122%	75.1%	49.3%	123%	87.9%	108%	32.9%

Two entries from above, reformatted:

| Structure (SMILES) | cleaved PARP positive nuclei fraction (MZ2-MEL) | cleaved PARP positive nuclei fraction (MeWo) | cleaved PARP positive nuclei fraction (RPMI7951) | cleaved PARP positive nuclei fraction (RVH-421) | cleaved PARP positive nuclei fraction (SkMel28) | cleaved PARP positive nuclei fraction (SkMel2) | cleaved PARP positive nuclei fraction (SkMel30) | cleaved PARP positive nuclei fraction (SkMel5) | cleaved PARP positive nuclei fraction (UACC257) | cleaved PARP positive nuclei fraction (UACC62) | cleaved PARP positive nuclei fraction (WM115) | cleaved PARP positive nuclei fraction (WM1716) | cleaved PARP positive nuclei fraction (WM1745) | cleaved PARP positive nuclei fraction (WM3526) | cleaved PARP positive nuclei fraction (WM3619) | cleaved PARP positive nuclei fraction (WM451Lu) |
| --- | --- | --- | --- | --- | --- | --- | --- | --- | --- | --- | --- | --- | --- | --- | --- | --- |
| C[C@@H](Oc1cc(-c2cnn(C3CCNCC3)c2)cnc1N)c1c(Cl)ccc(F)c1Cl [Crizotinib] + O=C(O)c1ccc(-c2c[nH]c3ncc(-c4ccccc4)cc23)cc1C1CCCC1 [GSK650394] (first compound 0.2 µM, partner dose 0.16 µM) | 82.6% | 58.8% | 88.5% | 84.4% | 42.8% | 89.4% | 133% | 98.1% | 44% | 68.9% | 42.6% | 61% | 95.4% | 186% | 87.1% | 68.8% |
| Cc1cc(Nc2cc(N3CCN(C)CC3)nc(/C=C/c3ccccc3)n2)n[nH]1 + COc1cc(N2CCC(N3CCN(C)CC3)CC2)ccc1Nc1ncc(Cl)c(Nc2ccccc2S(=O)(=O)C(C)C)n1 [NVP-TAE684] (first compound 0.04 µM, partner dose 0.08 µM) | 28.3% | 73.5% | 146% | 89.6% | 87.8% | 163% | 87.8% | 188% | 327% | 28.8% | 85.3% | 264% | 111% | 108% | 97.8% | 160% |
